The name of at least one read-out is uncertain.
Assay: Pharmacokinetic study on mouse brain tissue (plasma/cerebrospinal fluid/brain tissue)
Assay type: in vivo
Details: ICR mice, intragastric administration 10 mg/kg
Protocol: An appropriate amount of the test substance was weighed and formulated into a 1 mg/mL transparent and clear solution using 10% DMSO + 5% HS-15 + 85% Saline for intragastric administration. 24 healthy male ICR mice (Charles River, SPF grade) were taken, with 3 animals per time point. Blood samples were collected at 15 min, 0.5, 1, 2, 4, 6, 8, and 24 h after intragastric administration of the test substance (10 mg/kg). The blood sample was anticoagulated with EDTA-K2 and then centrifuged at 6000 g at 4°C for 5 min to separate plasma. The plasma was stored at - 70°C for testing. After blood collection, the animal was sacrificed to collect cerebrospinal fluid, which was stored at -70°C for testing. The brain tissue was rinsed with ice-cold normal saline to remove the residual blood, blotted dry with absorbent paper, and then stored at -70°C for testing. The drug concentration of the specified compound in the plasma/cerebrospinal fluid/brain tissue was determined using LC-MS/MS method (with Gliclazide as an internal standard). The main pharmacokinetic parameters were calculated using a Winnolin 8.3 noncompartmental model.

Row | SMILES | Cmax (Brain tissue) | Cmax (Cerebrospinal fluid) | Cmax (Plasma)
1 | C=C(C(=O)Nc1ccc(-c2c(-c3ccc(Oc4nccc(C)n4)c(F)c3)c3c(N)ncnc3n2C)cc1)C1CC1 [Compound 1, N-(4-(4-amino-5-(3-fluoro-4-((4-methylpyrimidin-2-yl)oxy)phenyl)-7-methyl-7H-pyrrolo[2,3-d]pyrimidin-6-yl)phenyl]-2-cyclopropylacrylamide] | 116 ng/mL or ng/g | 44.5 ng/mL or ng/g | 6240 ng/mL or ng/g
2 | C=C(C(=O)Nc1ccc(-c2c(-c3ccc(Oc4nccc(C)n4)c(F)c3)c3c(N)ncnc3n2C)c(Cl)c1)C1CC1 [Compound 4, N-(4-(4-amino-5-(3-fluoro-4-((4-methylpyrimidin-2-yl)oxy)phenyl)-7-methyl-7H-pyrrolo[2,3-d]pyrimidin-6-yl)-3-chlorophenyl)-2-cyclopropylacrylamide] | 97.3 ng/mL or ng/g | 6.3 ng/mL or ng/g | 5010 ng/mL or ng/g

— patent EP4722216A1, “PYRROLOPYRIMIDINE DERIVATIVE AND USE THEREOF IN MEDICINE” (Kangbaida (Sichuan) Biotechnology Co., Ltd., priority 2023, dated 2024)
